# Laboratory results from publication doi:10.1101/2022.04.28.489920.
# By UniProt entry, the sequences of proteins in these tests, tags left out.
# UniProt Q9DAK2, whole entry: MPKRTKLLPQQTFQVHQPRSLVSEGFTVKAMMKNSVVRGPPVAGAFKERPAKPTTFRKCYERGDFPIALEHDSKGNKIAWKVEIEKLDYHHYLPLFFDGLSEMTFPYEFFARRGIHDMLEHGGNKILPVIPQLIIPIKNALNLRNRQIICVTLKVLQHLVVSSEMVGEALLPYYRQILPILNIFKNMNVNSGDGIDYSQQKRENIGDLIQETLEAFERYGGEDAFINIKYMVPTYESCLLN
# These are yes or no findings as the source states them, for the method shown. For part of these data: In cells and extracts the contact can be indirect. Some entries that bind do so weakly or less than the wild type. For part of these data: Sequences can lack the tags named with a protein.
# B1: DNALI1 coding sequence in pGAD-T7 (direct yeast two-hybrid) (protein, UniProt Q8BVN8 1-258)
# chain: MIPPADSLLKYDTPVLVSRNTEKRSPTARPLKVTIQQPGPSSTSPQPPKAKLPSTSCVPDPTKQAEEILNAILPPREWVEDTQLWIQQVSSTPSTRMDVVHLQEQLDLKLQQRQARETGICPVRRELYSQCFDELIREVTINCAERGLLLLRVRDEIHMTIAAYQTLYESSVAFGMRKALQAEQGKSDMERKITELETEKRDLERQVNEQKAKCEATEKRESERRQVEEKKHNEEIQFLKRTNQQLKAQLEGIIAPKK
# B2: DNALI1/Flag (mouse Dnali1 cDNA in pCS3+FLT) (protein, UniProt Q8BVN8 1-258)
# chain: B1 chain
# B3: Untagged DNALI1 (full-length mouse Dnali1 in pCDFDuet-1, downstream cloning site) (protein, UniProt Q8BVN8 1-258)
# chain: B1 chain
# Columns and labels:
# [1] = target: Full-length mouse PACRG in pGBKT7 (yeast two-hybrid bait) (mouse) (UniProt Q9DAK2); experiment: two-hybrid
# [2] = target: PACRG/Myc (mouse Pacrg cDNA in pCS2+MT) (mouse) (UniProt Q9DAK2); experiment: co-IP
# [3] = target: His-tagged PACRG (full-length mouse Pacrg in pCDFDuet-1, upstream cloning site) (mouse) (UniProt Q9DAK2); experiment: SEC
binder,measurement,setting,value
B1,binding,[1],binds
B2,binding,[2],binds
B3,binding,[3],binds
